In PubChem BioAssay AID2685 (National Center for Advancing Translational Sciences (NCATS), 2010):
This is one part of the list. Further columns of the screen follow, without active or inactive calls. The list favours compounds with an active or inconclusive main result. Words in brackets tell the shape of the fitted curve; partial curves, single points and poor fits give uncertain potencies.

Assay: qHTS Assay for Lipid Storage Modulators in Drosophila S3 Cells;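 for cell number change: cells counted by Cell Tracker Red CMTPX staining in the red channel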
Conditions: BODIPY lipid droplet fluorescence, 18-24 h; for cell number change: measured here: cell count max response, cells fed with added oleic acid
Method in brief: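 Drosophila S3 cells loaded with oleic acid (400 uM, as added) and compounds at several concentrations; lipid droplets imaged by 488-nm laser-scanning cytometry, 500–530 nm intensity and object ratio to cell channel. Percent activity normalized to 20 uM Triacsin C.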

[1] = measured here: cell number channel AC50, cells fed with added oleic acid
[2] = measured here: lipid fluorescence (Fed channel) AC50, cells fed with added oleic acid

Row | SMILES | cell number change [%] | AC50 [1] | AC50 [2]
1 | Cc1ccc(-c2ncccc2OC(=O)C23CC4CC(CC(C4)C2)C3)cc1 | -38.4 | 10.3 µM [falling, partial curve] | 
2 | Cc1ccc2c(c1)N(S(=O)(=O)c1cc(-c3cc(C)no3)ccc1C)CCO2 | 21.1 | 0.00411 µM [rising, full curve, poor fit] | 
3 | CC1CCC2(CC1)NC(=O)N(CC(=O)NC(C)c1ccc(F)c(F)c1)C2=O (centres undefined) | 5.07 | 6.51 µM [falling, single point] | 2.91 µM [falling, single point]
4 | COc1ccc(C2(c3ccc(OC)cc3)NC(=O)NC2=O)cc1 | -26.7 |  | 
5 | CCN(CC(=O)NCc1ccc(F)cc1)C(=O)c1ccc(C(=O)c2ccccc2)cc1 | 28.6 |  | 29.1 µM [falling, partial curve]
6 | CC(C)(C)CC(C)(C)NC1=CC(=O)OC12CCCCC2 | 2.09 |  | 
7 | COc1cc2c(c3oc(=O)cc(CC(=O)O)c13)CCC(C)(C)O2 | 31.9 | 32.6 µM [rising, single point] | 29.1 µM [rising, single point]
8 | Cc1cc(C)n2nc(Nc3ccccc3)cc2n1 | -12.3 | 0.206 µM [rising, full curve, poor fit] | 
9 | COc1cccc(/C=N/NC(=O)CCn2cnc3ccccc32)c1 | 14.1 |  | 
10 | COc1c(O)cc2c(c1O)[C@@H]1O[C@H](CO)[C@@H](O)[C@H](O)C1OC2=O (some centres undefined) | -48.3 | 29.1 µM [falling, single point] | 29.1 µM [falling, single point]
11 | CCOC(=O)c1ccc(N2C(=O)C3CC=C(C)CC3C2=O)cc1 (centres undefined) | 12.3 |  | 32.6 µM [rising, partial curve]
12 | CCOC(=O)c1cc(C)n(CCCN2CCOCC2)c1C | -0.989 | 0.58 µM [falling, single point] | 
13 | CCCCS(=O)(=O)N1CCCC(C(=O)Nc2ccc3c(c2)CCC3)C1 (centres undefined) | 16.4 |  | 
14 | O=C(Nc1ccc(O)c(-c2nc3ccccc3s2)c1)c1cc(=O)c2ccccc2o1 | -8.11 | 6.51 µM [falling, single point] | 
15 | CCCc1[nH]nc2c1C(c1ccc(OC(=O)N3CCOCC3)c(OC)c1)C(C#N)=C(N)O2 (centres undefined) |  | 3.26 µM [rising, single point] | 4.11 µM [rising, partial curve, poor fit]
16 | Cc1ccc(NC(=O)C2=C(O)CCn3c2nc2ccccc23)cc1 | 0.925 |  | 0.146 µM [rising, full curve, poor fit]
17 | COc1ccccc1N1CCN(C(=O)CCc2nnc3ccc(N4CCOCC4)nn23)CC1 | 2.67 |  | 
18 | Cc1cc(C)c(C#N)c(SCC(=O)c2cccs2)n1 | 14.5 |  | 
19 | COC(=O)c1ccccc1NC(=S)N(Cc1ccc2c(c1)OCO2)Cc1cc2ccc(C)cc2[nH]c1=O | -11.7 |  | 1.16 µM [rising, full curve]
20 | CN(C)CCCNc1nc(N)c([N+](=O)[O-])c(NC2CCCCC2)n1 | -47.9 | 7.31 µM [falling, single point] | 6.51 µM [rising, single point]

Given as a markdown table: part of the list above

| Row | SMILES | cell number change [%] | AC50 [1] | AC50 [2] |
| --- | --- | --- | --- | --- |
| 1 | Cc1ccc(-c2ncccc2OC(=O)C23CC4CC(CC(C4)C2)C3)cc1 | -38.4 | 10.3 µM [falling, partial curve] |  |
| 2 | Cc1ccc2c(c1)N(S(=O)(=O)c1cc(-c3cc(C)no3)ccc1C)CCO2 | 21.1 | 0.00411 µM [rising, full curve, poor fit] |  |

Additional records:

Row | SMILES | cell number change [%] | AC50 [1] | AC50 [2]
21 | CCC(C)(C)NC(=O)c1ccc2c(c1)OCCO2 | 59.3 |  | 
22 | COc1ccc(C(=O)N2CCN(Cc3cc(OC)c(O)c(OC)c3)CC2)cc1OC | 8.18 |  | 0.291 µM [rising, full curve, poor fit]
23 | CSc1ccc(C#N)cc1NC(=O)c1ccc(Cl)nc1 | -13.4 | 0.103 µM [falling, full curve, poor fit] | 
24 | COc1ccc(CNC(=O)c2c(C)cc(=O)oc2C)cc1 | 61.1 | 16.4 µM [rising, single point] | 
25 | Cc1cccc(NC(=O)COC(=O)c2cccc(S(=O)(=O)N3CCCCCC3)c2)c1 | -8.46 |  | 4.11 µM [falling, single point]
26 | CCNc1oc(COc2ccccc2F)nc1C#N | 13 |  | 1.84 µM [rising, full curve, poor fit]
27 | COc1ccccc1-c1cc2nc(C)c(CCC(=O)NC(C)CCc3ccco3)c(C)n2n1 (centres undefined) |  | 5.8 µM [rising, single point] | 6.51 µM [rising, single point]
28 | O=C(Nc1cccc(Cl)c1)C1=Cc2cc(Cl)ccc2OC1 | -11.3 |  | 
29 | O=C(c1cccc(N2C(=O)C3C4C=CC(C4)C3C2=O)c1)N1CCN(c2ccccc2Cl)CC1 (centres undefined) | 5.2 |  | 
30 | CN1CCN(c2nc3c(c(=O)n(C)c(=O)n3C)n2Cc2ccccc2F)CC1 | 32.8 | 32.6 µM [rising, single point] | 
31 | Cc1ccc(Oc2ncccc2/C=N/OCc2ccc(Cl)c(Cl)c2)cc1 | -18.5 |  | 
32 | Cc1nn(C)c(C)c1CN(C(=O)CCc1nnc(Cc2c[nH]c3ccccc23)o1)C(C)C | -56.7 | 10.3 µM [falling, partial curve] | 20.6 µM [falling, single point]
33 | O=C(COc1ccc(Cl)cc1)Nc1ccc(Cl)cn1 | -6.27 |  | 
34 | Cn1cc(Br)c(C(=O)Nc2sc3c(c2C(N)=O)CCC3)n1 | 30.6 | 1.84 µM [rising, partial curve, poor fit] | 6.51 µM [rising, partial curve]
35 | COc1cccc(NS(=O)(=O)c2ccc3[nH]cc(C(=O)N(C)Cc4ccco4)c(=O)c3c2)c1 | -2.26 |  | 1.64 µM [falling, full curve, poor fit]
36 | O=C(COC(=O)C1CCCCC1C(=O)N1CCc2ccccc21)NCc1ccco1 (centres undefined) | 26.2 | 0.92 µM [rising, full curve, poor fit] | 0.82 µM [falling, full curve, poor fit]
37 | Cc1nc2ccccc2n1CC(=O)OCC(=O)NC1CC1 | -19.8 |  | 
38 | CC1CCCN(S(=O)(=O)CCNC(=O)c2ccc3c(c2)OCO3)C1 (centres undefined) | -25 | 0.00517 µM [falling, full curve, poor fit] | 0.58 µM [rising, single point]
39 | O=C(NCc1nnc(SCc2ccc(F)cc2)n1-c1ccc(F)cc1)C12CC3CC(CC(C3)C1)C2 | -60.3 | 18.4 µM [falling, single point] | 
